Assay [1] concerns the target endogenous PCNA (U2OS cells) (human (endogenous in U2OS)) (UniProt P12004). The experiment in a line: co-IP; co-immunoprecipitation with or without HU treatment; bait, cells and constructs not shown (Supplementary Figure 7c).
The target in a further assay is HA-PCNA-WT (UniProt P12004). Kind of assay: proximity ligation; in situ PLA (Duolink) in fixed, permeabilised U2OS cells (WT or 53BP1-KO), anti-FLAG with anti-PCNA or anti-HA; untreated, HU (1 mM, 24 h) or IR (4 Gy, 2 h after).
A further assay has as its target HA-PCNA-K164R (UniProt P12004). The assay is described as above.
The target in assay [2] is endogenous PCNA (U2OS cells) (human (endogenous in U2OS)) (UniProt P12004). Described as above.
For the next assay, the target named is GST-PCNA (UniProt P12004). The experiment in a line: pull-down; GST-PCNA or GST-PCNA-Ub on glutathione-Sepharose beads incubated with lysate of 293T cells expressing 3xFlag-PIF1, NETN (150 mM NaCl, 1 mM EDTA, 20 mM Tris-HCl pH 8.0, 0.5% NP-40), 3 hours at 4°C; anti-Flag Western blot; only the target purified. For orientation: Immunoblotting shows a protein as a band on a membrane.

Amino acid sequences for entries named in this document (tags omitted). A change or cut given only in a name is not applied to a line headed by its entry.
UniProt P12004: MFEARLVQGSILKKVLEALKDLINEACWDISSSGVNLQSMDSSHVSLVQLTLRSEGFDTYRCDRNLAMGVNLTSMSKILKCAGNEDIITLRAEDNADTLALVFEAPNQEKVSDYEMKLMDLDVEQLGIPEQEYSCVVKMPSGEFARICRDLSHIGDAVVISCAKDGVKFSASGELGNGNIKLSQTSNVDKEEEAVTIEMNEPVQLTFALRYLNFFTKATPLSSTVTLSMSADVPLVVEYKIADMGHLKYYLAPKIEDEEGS

We go through two molecules from publication doi:10.1101/2024.09.11.612483.

These are yes or no findings as the source states them, for the method shown. Binding seen in cells or lysates may run through a third protein. Some results given as binding are weak or reduced against the parent protein; the word gives no strength. Sequences can lack the tags named with a protein.

B1: Flag-PIF1 (stably expressed in U2OS cells) (protein, UniProt Q9H611 1-641)
chain: MLSGIEAAAGEYEDSELRCRVAVEELSPGGQPRRRQALRTAELSLGRNERRELMLRLQAPGPAGRPRCFPLRAARLFTRFAEAGRSTLRLPAHDTPGAGAVQLLLSDCPPDRLRRFLRTLRLKLAAAPGPGPASARAQLLGPRPRDFVTISPVQPEERRLRAATRVPDTTLVKRPVEPQAGAEPSTEAPRWPLPVKRLSLPSTKPQLSEEQAAVLRAVLKGQSIFFTGSAGTGKSYLLKRILGSLPPTGTVATASTGVAACHIGGTTLHAFAGIGSGQAPLAQCVALAQRPGVRQGWLNCQRLVIDEISMVEADLFDKLEAVARAVRQQNKPFGGIQLIICGDFLQLPPVTKGSQPPRFCFQSKSWKRCVPVTLELTKVWRQADQTFISLLQAVRLGRCSDEVTRQLQATASHKVGRDGIVATRLCTHQDDVALTNERRLQELPGKVHRFEAMDSNPELASTLDAQCPVSQLLQLKLGAQVMLVKNLSVSRGLVNGARGVVVGFEAEGRGLPQVRFLCGVTEVIHADRWTVQATGGQLLSRQQLPLQLAWAMSIHKSQGMTLDCVEISLGRVFASGQAYVALSRARSLQGLRVLDFDPMAVRCDPRVLHFYATLRRGRSLSLESPDDDEAASDQENMDPIL
In the case of B1, the binding entry (in assay [1]; with HA-PCNA-WT; with HA-PCNA-K164R; in assay [2]) was “binds” each time.

B2: 3xFlag-PIF1 (293T cells, transfected) (protein, UniProt Q9H611 1-641)
chain: B1 chain
As to B2, the binding result in the assay with GST-PCNA is “binds”.
